PMC13172546
These are yes or no findings as the source states them, for the method shown. In cells and extracts the contact can be indirect. A yes stands for co-enrichment or nearness to the bait. Other partners may have been found.

Chains of the proteins cited; added tags and fusions are not shown.
UniProt P46937: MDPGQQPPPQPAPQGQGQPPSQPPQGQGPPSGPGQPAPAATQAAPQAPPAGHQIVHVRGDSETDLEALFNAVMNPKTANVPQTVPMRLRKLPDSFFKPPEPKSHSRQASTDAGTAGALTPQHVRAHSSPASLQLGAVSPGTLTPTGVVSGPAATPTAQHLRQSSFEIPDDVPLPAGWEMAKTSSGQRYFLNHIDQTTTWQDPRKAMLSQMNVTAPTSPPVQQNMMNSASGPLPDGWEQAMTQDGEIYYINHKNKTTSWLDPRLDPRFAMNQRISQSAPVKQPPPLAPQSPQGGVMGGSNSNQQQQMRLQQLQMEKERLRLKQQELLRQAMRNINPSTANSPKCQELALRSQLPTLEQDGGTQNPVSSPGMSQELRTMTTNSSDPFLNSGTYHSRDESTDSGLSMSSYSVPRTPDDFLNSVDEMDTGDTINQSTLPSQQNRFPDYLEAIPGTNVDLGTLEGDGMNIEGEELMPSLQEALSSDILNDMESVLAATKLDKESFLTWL
UniProt Q2KHR3: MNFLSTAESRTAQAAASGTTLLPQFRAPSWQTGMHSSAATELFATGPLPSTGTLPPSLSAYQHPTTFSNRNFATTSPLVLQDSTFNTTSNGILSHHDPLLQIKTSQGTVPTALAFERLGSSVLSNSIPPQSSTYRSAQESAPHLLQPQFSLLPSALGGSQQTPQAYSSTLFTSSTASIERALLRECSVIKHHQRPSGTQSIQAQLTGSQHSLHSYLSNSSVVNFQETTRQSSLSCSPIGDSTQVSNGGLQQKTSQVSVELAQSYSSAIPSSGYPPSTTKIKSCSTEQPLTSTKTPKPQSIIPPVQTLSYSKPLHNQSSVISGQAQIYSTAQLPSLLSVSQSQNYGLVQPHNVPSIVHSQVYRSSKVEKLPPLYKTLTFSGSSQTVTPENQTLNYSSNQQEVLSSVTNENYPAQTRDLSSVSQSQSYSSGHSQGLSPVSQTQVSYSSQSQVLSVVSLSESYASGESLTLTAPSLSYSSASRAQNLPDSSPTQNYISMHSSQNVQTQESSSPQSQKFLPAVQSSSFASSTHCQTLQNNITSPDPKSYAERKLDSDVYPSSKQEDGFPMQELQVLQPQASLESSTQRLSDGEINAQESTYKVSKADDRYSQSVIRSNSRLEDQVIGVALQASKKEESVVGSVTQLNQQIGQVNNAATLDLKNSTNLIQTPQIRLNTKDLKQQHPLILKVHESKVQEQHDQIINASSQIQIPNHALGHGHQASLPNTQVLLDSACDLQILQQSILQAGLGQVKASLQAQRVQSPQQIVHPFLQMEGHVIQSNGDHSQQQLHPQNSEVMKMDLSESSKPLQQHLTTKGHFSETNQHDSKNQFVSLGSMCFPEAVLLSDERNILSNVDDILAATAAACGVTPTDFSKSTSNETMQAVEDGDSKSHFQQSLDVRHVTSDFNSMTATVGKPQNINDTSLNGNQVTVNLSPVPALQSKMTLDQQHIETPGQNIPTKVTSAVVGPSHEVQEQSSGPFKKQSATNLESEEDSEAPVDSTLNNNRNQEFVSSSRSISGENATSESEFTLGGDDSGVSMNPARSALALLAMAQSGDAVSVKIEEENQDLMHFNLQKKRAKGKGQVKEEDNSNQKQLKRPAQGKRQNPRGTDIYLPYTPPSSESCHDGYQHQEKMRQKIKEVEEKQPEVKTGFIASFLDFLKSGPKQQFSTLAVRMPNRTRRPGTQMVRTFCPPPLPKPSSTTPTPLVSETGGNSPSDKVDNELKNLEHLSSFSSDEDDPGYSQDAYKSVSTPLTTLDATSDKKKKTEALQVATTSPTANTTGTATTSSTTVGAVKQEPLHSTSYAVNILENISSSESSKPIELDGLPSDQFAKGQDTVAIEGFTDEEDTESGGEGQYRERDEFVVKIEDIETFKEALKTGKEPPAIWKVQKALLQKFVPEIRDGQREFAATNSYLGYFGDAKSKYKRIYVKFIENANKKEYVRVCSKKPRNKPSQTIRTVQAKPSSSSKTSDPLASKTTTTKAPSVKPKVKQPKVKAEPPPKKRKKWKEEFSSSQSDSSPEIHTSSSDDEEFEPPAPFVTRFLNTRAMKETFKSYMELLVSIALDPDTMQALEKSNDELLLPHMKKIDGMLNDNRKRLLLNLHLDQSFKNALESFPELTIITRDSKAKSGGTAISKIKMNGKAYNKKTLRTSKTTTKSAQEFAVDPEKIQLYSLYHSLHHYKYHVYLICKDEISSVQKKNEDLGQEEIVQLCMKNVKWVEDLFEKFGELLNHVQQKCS

biological target: YAP1-MYC-BIR2 fusion protein (human) (UniProt P46937); assay: proximity labelling; BioID2 with YAP1-Myc-Bir2 as bait in H1 hESCs; 25 pg/ml doxycycline 24 h, then 50 mM biotin 16 h; nuclear fraction; streptavidin affinity purification and LC-MS/MS; four conditions (+/- dox, +/- biotin), n = 3

Row | Molecule | binding
1 | QSER1 (from UniProt Q2KHR3 1-1735) | binds
2 | GOLGA5 (protein, UniProt Q8TBA6 1-731) MSWFVDLAGKAEDLLNRVDQGAATALSRKDNASNIYSKNTDYTELHQQNTDLIYQTGPKSTYISSAADNIRNQKATILAGTANVKVGSRTPVEASHPVENASVPRPSSHFVRRKKSEPDDELLFDFLNSSQKEPTGRVEIRKEKGKTPVFQSSQTSSVSSVNPSVTTIKTIEENSFGSQTHEAASNSDSSHEGQEESSKENVSSNAACPDHTPTPNDDGKSHELSNLRLENQLLRNEVQSLNQEMASLLQRSKETQEELNKARARVEKWNADHSKSDRMTRGLRAQVDDLTEAVAAKDSQLAVLKVRLQEADQLLSTRTEALEALQSEKSRIMQDQSEGNSLQNQALQTFQERLHEADATLKREQESYKQMQSEFAARLNKVEMERQNLAEAITLAERKYSDEKKRVDELQQQVKLYKLNLESSKQELIDYKQKATRILQSKEKLINSLKEGSGFEGLDSSTASSMELEELRHEKEMQREEIQKLMGQIHQLRSELQDMEAQQVNEAESAREQLQDLHDQIAGQKASKQELETELERLKQEFHYIEEDLYRTKNTLQSRIKDRDEEIQKLRNQLTNKTLSNSSQSELENRLHQLTETLIQKQTMLESLSTEKNSLVFQLERLEQQMNSASGSSSNGSSINMSGIDNGEGTRLRNVPVLFNDTETNLAGMYGKVRKAASSIDQFSIRLGIFLRRYPIARVFVIIYMALLHLWVMIVLLTYTPEMHHDQPYGK | binds
3 | CALD1 (protein, UniProt Q05682 1-793) MDDFERRRELRRQKREEMRLEAERIAYQRNDDDEEEAARERRRRARQERLRQKQEEESLGQVTDQVEVNAQNSVPDEEAKTTTTNTQVEGDDEAAFLERLARREERRQKRLQEALERQKEFDPTITDASLSLPSRRMQNDTAENETTEKEEKSESRQERYEIEETETVTKSYQKNDWRDAEENKKEDKEKEEEEEEKPKRGSIGENQVEVMVEEKTTESQEETVVMSLKNGQISSEEPKQEEEREQGSDEISHHEKMEEEDKERAEAERARLEAEERERIKAEQDKKIADERARIEAEEKAAAQERERREAEERERMREEEKRAAEERQRIKEEEKRAAEERQRIKEEEKRAAEERQRIKEEEKRAAEERQRARAEEEEKAKVEEQKRNKQLEEKKHAMQETKIKGEKVEQKIEGKWVNEKKAQEDKLQTAVLKKQGEEKGTKVQAKREKLQEDKPTFKKEEIKDEKIKKDKEPKEEVKSFMDRKKGFTEVKSQNGEFMTHKLKHTENTFSRPGGRASVDTKEAEGAPQVEAGKRLEELRRRRGETESEEFEKLKQKQQEAALELEELKKKREERRKVLEEEEQRRKQEEADRKLREEEEKRRLKEEIERRRAEAAEKRQKMPEDGLSDDKKPFKCFTPKGSSLKIEERAEFLNKSVQKSSGVKSTHQAAIVSKIDSRLEQYTSAIEGTKSAKPTKPAASDLPVPAEGVRNIKSMWEKGNVFSSPTAAGTPNKETAGLKVGVSSRINEWLTKTPDGNKSPAPKPSDLRPGDVSSKRNLWEKQSVDKVTSPTKV | binds

Next, values leading:

Row | binding | Molecule
4 | binds | SNW1 (protein, UniProt Q13573 1-536) MALTSFLPAPTQLSQDQLEAEEKARSQRSRQTSLVSSRREPPPYGYRKGWIPRLLEDFGDGGAFPEIHVAQYPLDMGRKKKMSNALAIQVDSEGKIKYDAIARQGQSKDKVIYSKYTDLVPKEVMNADDPDLQRPDEEAIKEITEKTRVALEKSVSQKVAAAMPVRAADKLAPAQYIRYTPSQQGVAFNSGAKQRVIRMVEMQKDPMEPPRFKINKKIPRGPPSPPAPVMHSPSRKMTVKEQQEWKIPPCISNWKNAKGYTIPLDKRLAADGRGLQTVHINENFAKLAEALYIADRKAREAVEMRAQVERKMAQKEKEKHEEKLREMAQKARERRAGIKTHVEKEDGEARERDEIRHDRRKERQHDRNLSRAAPDKRSKLQRNENRDISEVIALGVPNPRTSNEVQYDQRLFNQSKGMDSGFAGGEDEIYNVYDQAWRGGKDMAQSIYRPSKNLDKDMYGDDLEARIKTNRFVPDKEFSGSDRRQRGREGPVQFEEDPFGLDKFLEEAKQHGGSKRPSDSSRPKEHEHEGKKRRKE
5 | binds | WAPL (protein, UniProt Q7Z5K2 1-1190) MTSRFGKTYSRKGGNGSSKFDEVFSNKRTTLSTKWGETTFMAKLGQKRPNFKPDIQEIPKKPKVEEESTGDPFGFDSDDESLPVSSKNLAQVKCSSYSESSEAAQLEEVTSVLEANSKISHVVVEDTVVSDKCFPLEDTLLGKEKSTNRIVEDDASISSCNKLITSDKVENFHEEHEKNSHHIHKNADDSTKKPNAETTVASEIKETNDTWNSQFGKRPESPSEISPIKGSVRTGLFEWDNDFEDIRSEDCILSLDSDPLLEMKDDDFKNRLENLNEAIEEDIVQSVLRPTNCRTYCRANKTKSSQGASNFDKLMDGTSQALAKANSESSKDGLNQAKKGGVSCGTSFRGTVGRTRDYTVLHPSCLSVCNVTIQDTMERSMDEFTASTPADLGEAGRLRKKADIATSKTTTRFRPSNTKSKKDVKLEFFGFEDHETGGDEGGSGSSNYKIKYFGFDDLSESEDDEDDDCQVERKTSKKRTKTAPSPSLQPPPESNDNSQDSQSGTNNAENLDFTEDLPGVPESVKKPINKQGDKSKENTRKIFSGPKRSPTKAVYNARHWNHPDSEELPGPPVVKPQSVTVRLSSKEPNQKDDGVFKAPAPPSKVIKTVTIPTQPYQDIVTALKCRREDKELYTVVQHVKHFNDVVEFGENQEFTDDIEYLLSGLKSTQPLNTRCLSVISLATKCAMPSFRMHLRAHGMVAMVFKTLDDSQHHQNLSLCTAALMYILSRDRLNMDLDRASLDLMIRLLELEQDASSAKLLNEKDMNKIKEKIRRLCETVHNKHLDLENITTGHLAMETLLSLTSKRAGDWFKEELRLLGGLDHIVDKVKECVDHLSRDEDEEKLVASLWGAERCLRVLESVTVHNPENQSYLIAYKDSQLIVSSAKALQHCEELIQQYNRAEDSICLADSKPLPHQNVTNHVGKAVEDCMRAIIGVLLNLTNDNEWGSTKTGEQDGLIGTALNCVLQVPKYLPQEQRFDIRVLGLGLLINLVEYSARNRHCLVNMETSCSFDSSICSGEGDDSLRIGGQVHAVQALVQLFLERERAAQLAESKTDELIKDAPTTQHDKSGEWQETSGEIQWVSTEKTDGTEEKHKKEEEDEELDLNKALQHAGKHMEDCIVASYTALLLGCLCQESPINVTTVREYLPEGDFSIMTEMLKKFLSFMNLTCAVGTTGQKSISRVIEYLEHC
6 | binds | SALL2 (protein, UniProt Q9Y467 1-1007) MSRRKQRKPQQLISDCEGPSASENGDASEEDHPQVCAKCCAQFTDPTEFLAHQNACSTDPPVMVIIGGQENPNNSSASSEPRPEGHNNPQVMDTEHSNPPDSGSSVPTDPTWGPERRGEESSGHFLVAATGTAAGGGGGLILASPKLGATPLPPESTPAPPPPPPPPPPPGVGSGHLNIPLILEELRVLQQRQIHQMQMTEQICRQVLLLGSLGQTVGAPASPSELPGTGTASSTKPLLPLFSPIKPVQTSKTLASSSSSSSSSSGAETPKQAFFHLYHPLGSQHPFSAGGVGRSHKPTPAPSPALPGSTDQLIASPHLAFPSTTGLLAAQCLGAARGLEATASPGLLKPKNGSGELSYGEVMGPLEKPGGRHKCRFCAKVFGSDSALQIHLRSHTGERPYKCNVCGNRFTTRGNLKVHFHRHREKYPHVQMNPHPVPEHLDYVITSSGLPYGMSVPPEKAEEEAATPGGGVERKPLVASTTALSATESLTLLSTSAGTATAPGLPAFNKFVLMKAVEPKNKADENTPPGSEGSAISGVAESSTATRMQLSKLVTSLPSWALLTNHFKSTGSFPFPYVLEPLGASPSETSKLQQLVEKIDRQGAVAVTSAASGAPTTSAPAPSSSASSGPNQCVICLRVLSCPRALRLHYGQHGGERPFKCKVCGRAFSTRGNLRAHFVGHKASPAARAQNSCPICQKKFTNAVTLQQHVRMHLGGQIPNGGTALPEGGGAAQENGSEQSTVSGARSFPQQQSQQPSPEEELSEEEEEEDEEEEEDVTDEDSLAGRGSESGGEKAISVRGDSEEASGAEEEVGTVAAAATAGKEMDSNEKTTQQSSLPPPPPPDSLDQPQPMEQGSSGVLGGKEEGGKPERSSSPASALTPEGEATSVTLVEELSLQEAMRKEPGESSSRKACEVCGQAFPSQAALEEHQKTHPKEGPLFTCVFCRQGFLERATLKKHMLLAHHQVQPFAPHGPQNIAALSLVPGCSPSITSTGLSPFPRKDDPTIP
